Small differences around the control level are noise.
Key:
Test in all cases: normalised response (% of control), CellTox Green; higher = less cell death (100 = DMSO, 0 = benzethonium chloride kill control)
Settings in all cases: incubation time: 72 h
HCC1599 [1] = test system: HCC1599
Method: (§1)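 DSRT, 72 h incubation, CellTox Green / CellTiter-Glo readout. Signal is normalised to DMSO and benzethonium chloride controls. Value is the normalised response at the lowest tested concentration.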

Hs578T [2] = test system: Hs578T
Method: as §1

BT-474 [3] = test system: BT-474
Method: as §1

MDA-MB-231 [4] = test system: MDA-MB-231
Method: as §1

MFM-223 [5] = test system: MFM-223
Method: as §1

CAL-51 [6] = test system: CAL-51
Method: as §1

DU-4475 [7] = test system: DU-4475
Method: as §1

MDA-MB-436 [8] = test system: MDA-MB-436
Method: as §1

BT-549 [9] = test system: BT-549
Method: as §1

CAL-120 [10] = test system: CAL-120
Method: as §1

CAL-85-1 [11] = test system: CAL-85-1
Method: as §1

CAL-148 [12] = test system: CAL-148
Method: as §1

MDA-MB-453 [13] = test system: MDA-MB-453
Method: as §1

HCC1937 = test system: HCC1937
Method: as §1

MCF-10A [14] = test system: MCF-10A
Method: as §1

HDQ-P1 [15] = test system: HDQ-P1
Method: as §1

MDA-MB-468 = test system: MDA-MB-468
Method: as §1

HCC1143 [16] = test system: HCC1143
Method: as §1

HCC1599 [17] = test system: HCC1599; remark: listed apart in the source
Method: (§2)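 DSRT, 72 h incubation, CellTox Green / CellTiter-Glo readout. Signal is normalised to DMSO and benzethonium chloride controls. Value is the normalised response at dose 2.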

Hs578T [18] = test system: Hs578T; remark: listed apart in the source
Method: as §2

BT-474 [19] = test system: BT-474; remark: listed apart in the source
Method: as §2

HCC1143 [20] = test system: HCC1143; remark: listed apart in the source
Method: as §2

MDA-MB-231 [21] = test system: MDA-MB-231; remark: listed apart in the source
Method: as §2

MFM-223 [22] = test system: MFM-223; remark: listed apart in the source
Method: as §2

CAL-51 [23] = test system: CAL-51; remark: listed apart in the source
Method: as §2

DU-4475 [24] = test system: DU-4475; remark: listed apart in the source
Method: as §2

MDA-MB-436 [25] = test system: MDA-MB-436; remark: listed apart in the source
Method: as §2

BT-549 [26] = test system: BT-549; remark: listed apart in the source
Method: as §2

CAL-120 [27] = test system: CAL-120; remark: listed apart in the source
Method: as §2

CAL-85-1 [28] = test system: CAL-85-1; remark: listed apart in the source
Method: as §2

CAL-148 [29] = test system: CAL-148; remark: listed apart in the source
Method: as §2

MDA-MB-453 [30] = test system: MDA-MB-453; remark: listed apart in the source
Method: as §2

MCF-10A [31] = test system: MCF-10A; remark: listed apart in the source
Method: as §2

HDQ-P1 [32] = test system: HDQ-P1; remark: listed apart in the source
Method: as §2

Compound | normalised response (HCC1599 [1]) | normalised response (Hs578T [2]) | normalised response (BT-474 [3]) | normalised response (MDA-MB-231 [4]) | normalised response (MFM-223 [5]) | normalised response (CAL-51 [6]) | normalised response (DU-4475 [7]) | normalised response (MDA-MB-436 [8]) | normalised response (BT-549 [9]) | normalised response (CAL-120 [10]) | normalised response (CAL-85-1 [11]) | normalised response (CAL-148 [12]) | normalised response (MDA-MB-453 [13]) | normalised response (HCC1937) | normalised response (MCF-10A [14]) | normalised response (HDQ-P1 [15]) | normalised response (MDA-MB-468) | normalised response (HCC1143 [16]) | normalised response (HCC1599 [17]) | normalised response (Hs578T [18]) | normalised response (BT-474 [19]) | normalised response (HCC1143 [20]) | normalised response (MDA-MB-231 [21]) | normalised response (MFM-223 [22]) | normalised response (CAL-51 [23]) | normalised response (DU-4475 [24]) | normalised response (MDA-MB-436 [25]) | normalised response (BT-549 [26]) | normalised response (CAL-120 [27]) | normalised response (CAL-85-1 [28]) | normalised response (CAL-148 [29]) | normalised response (MDA-MB-453 [30]) | normalised response (MCF-10A [31]) | normalised response (HDQ-P1 [32])
CN1CCC(COc2cnc(-c3cccc(Cn4nc(-c5cccc(C#N)c5)ccc4=O)c3)nc2)CC1 (0.1 nM) | 91.2% | 106% | 102% | 109% | 90.3% | 84.6% | 98% | 79% | 96.9% | 95.8% | 105% | 97.7% | 110% | 112% | 98.3% | 101% |  |  |  |  |  |  |  |  |  |  |  |  |  |  |  |  |  | 
COc1cc(CCc2cc(NC(=O)c3ccc(N4CC(C)NC(C)C4)cc3)n[nH]2)cc(OC)c1 (stereo not given) [AZD4547] (0.1 nM) | 88.9% | 92.1% | 97.2% | 105% | 91.2% | 116% | 94.6% | 69.2% | 67.1% | 98.7% | 103% | 95.3% | 98.6% | 85.9% | 104% | 91.3% | 122% |  |  |  |  |  |  |  |  |  |  |  |  |  |  |  |  | 
NC(=O)Nc1cc(-c2cccc(F)c2)sc1C(=O)N[C@H]1CCCNC1 [AZD7762] (0.1 nM) | 105% | 109% | 95.6% | 109% |  | 94.5% | 102% | 65.2% | 108% | 101% | 102% | 105% | 94.1% |  |  | 92.5% | 82.8% | 89.3% |  |  |  |  |  |  |  |  |  |  |  |  |  |  |  | 
CC[C@@H]1C(=O)N(C)c2cnc(Nc3ccc(C(=O)NC4CCN(C)CC4)cc3OC)nc2N1C1CCCC1 [BI 2536] (0.1 nM) | 95.4% | 102% | 103% | 98.7% | 97.3% | 114% | 99.5% | 72.3% | 96.6% | 92.9% | 103% | 103% | 109% |  |  | 66.5% | 87.2% | 89% |  |  |  |  |  |  |  |  |  |  |  |  |  |  |  | 
COc1cc(Nc2c(C#N)cnc3cc(OCCCN4CCN(C)CC4)c(OC)cc23)c(Cl)cc1Cl [Bosutinib] (1 nM) | 104% | 112% | 97.9% | 98.2% | 95.8% | 113% | 108% | 88.9% | 89% | 96.1% | 97% | 80.3% | 105% | 107% | 98.9% |  |  | 122% |  |  |  |  |  |  |  |  |  |  |  |  |  |  |  | 
Cc1ccc(-n2nc(C(C)(C)C)cc2NC(=O)Nc2ccc(OCCN3CCOCC3)c3ccccc23)cc1 [Doramapimod] (1 nM) | 97.3% | 105% | 98.7% | 88.6% | 97.3% |  | 93.2% | 81.8% | 107% | 95.8% | 98.7% | 99.9% | 100% | 102% | 74.2% |  | 98.4% | 108% |  |  |  |  |  |  |  |  |  |  |  |  |  |  |  | 
CCCCCCCCc1ccc(CCC(N)(CO)CO)cc1 [Fingolimod] (1 nM) | 100% | 107% | 103% | 101% | 102% | 123% | 102% | 56% | 102% | 102% | 107% | 106% | 112% |  | 72.9% | 98.5% | 69.7% | 96.7% |  |  |  |  |  |  |  |  |  |  |  |  |  |  |  | 
C[C@@H]1C=C2C(=O)O[C@@H]3CC[C@H](C1)[C@]23O [Galiellalactone] (5 nM) | 94.8% | 111% | 102% | 111% | 105% | 117% | 103% | 70.5% | 97.3% | 97.3% | 103% | 107% | 110% | 110% |  | 99.7% | 108% | 96.6% |  |  |  |  |  |  |  |  |  |  |  |  |  |  |  | 
COc1cc2ncnc(Nc3ccc(F)c(Cl)c3)c2cc1OCCCN1CCOCC1 [Gefitinib] (1 nM) | 102% | 73.7% | 101% | 113% | 99.3% | 111% | 101% | 102% | 96.5% | 101% | 97.6% | 85.9% | 106% | 100% | 84.7% |  | 87.8% | 125% |  |  |  |  |  |  |  |  |  |  |  |  |  |  |  | 
Clc1ccc(C(c2ccccc2Cl)C(Cl)Cl)cc1 (stereo not given) [Mitotane] (1 nM) | 100% | 57.2% | 98.5% | 99.8% | 89.8% | 106% | 99.5% | 105% | 87.5% | 99.3% | 97.1% |  | 101% | 80.2% | 92.5% | 77.7% | 109% | 112% |  |  |  |  |  |  |  |  |  |  |  |  |  |  |  | 
Nc1ccccc1NC(=O)c1ccc(CNc2nccc(-c3cccnc3)n2)cc1 [Mocetinostat] (1 nM) | 94.7% | 67.2% | 98.4% | 107% | 102% | 73.9% | 99.6% | 84.1% | 104% | 102% | 106% |  | 101% | 97.9% |  | 59.6% | 78.1% | 107% |  |  |  |  |  |  |  |  |  |  |  |  |  |  |  | 
CC1(C)CCC(c2ccc(Cl)cc2)=C(CN2CCN(c3ccc(C(=O)NS(=O)(=O)c4ccc(N[C@H](CCN5CCOCC5)CSc5ccccc5)c(S(=O)(=O)C(F)(F)F)c4)cc3)CC2)C1 [Navitoclax] (1 nM) | 98.5% | 86.8% | 91.4% | 98.1% | 82.1% | 88.5% | 97.9% | 84.7% | 95.8% | 98.3% | 99.5% | 101% | 103% | 99.9% | 101% |  | 79.8% | 122% |  |  |  |  |  |  |  |  |  |  |  |  |  |  |  | 
CC[C@H](C)C(=O)O[C@H]1C[C@H](O)C=C2C=C[C@H](C)[C@H](CC[C@@H](O)C[C@@H](O)CC(=O)O)[C@H]21 [Pravastatin] (1 nM) | 101% | 67.1% | 98.5% | 102% | 103% | 106% | 100% | 73.3% | 106% | 79% | 93.6% | 94.1% | 86.9% |  | 103% | 101% | 86.6% | 103% |  |  |  |  |  |  |  |  |  |  |  |  |  |  |  | 
C[C@]12C=CC(=O)C=C1CC[C@@H]1[C@@H]2C(=O)C[C@@]2(C)[C@H]1CC[C@]2(O)C(=O)CO [Prednisone] (1 nM) | 99.3% |  | 102% | 118% | 88.7% | 95.8% | 102% | 73.9% | 106% | 94.7% | 100% | 99.8% | 108% | 81.5% | 84.5% | 93.8% | 112% |  |  |  |  |  |  |  |  |  |  |  |  |  |  |  |  | 
CC[C@H](CO)Nc1nc(NCc2ccccc2)c2ncn(C(C)C)c2n1 [Seliciclib] (1 nM) | 103% | 85.9% | 104% | 101% | 85.6% | 117% | 101% | 68.1% | 92.7% | 98.5% | 105% | 96.6% | 104% | 92.3% | 94.8% |  | 116% | 120% |  |  |  |  |  |  |  |  |  |  |  |  |  |  |  | 
Cn1cncc1[C@@](N)(c1ccc(Cl)cc1)c1ccc2c(c1)c(-c1cccc(Cl)c1)cc(=O)n2C [Tipifarnib] (1 nM) | 99.1% | 71.9% | 102% | 89.8% | 96.8% | 120% | 100% | 97.6% | 106% | 95.7% | 97.9% | 98.9% | 109% | 69.9% | 102% | 97% |  | 109% |  |  |  |  |  |  |  |  |  |  |  |  |  |  |  | 

Taken from above:
`CC[C@H](C)C(=O)O[C@H]1C[C@H](O)C=C2C=C[C@H](C)[C@H](CC[C@@H](O)C[C@@H](O)CC(=O)O)[C@H]21` [Pravastatin] (1 nM) – normalised response (BT-549 [9]): 106%
`NC(=O)Nc1cc(-c2cccc(F)c2)sc1C(=O)N[C@H]1CCCNC1` [AZD7762] (0.1 nM) – normalised response (MDA-MB-468): 82.8%
